# Measurements from PMC6233179.
# By UniProt entry, the sequences of proteins in these tests, tags left out.
# UniProt Q07936: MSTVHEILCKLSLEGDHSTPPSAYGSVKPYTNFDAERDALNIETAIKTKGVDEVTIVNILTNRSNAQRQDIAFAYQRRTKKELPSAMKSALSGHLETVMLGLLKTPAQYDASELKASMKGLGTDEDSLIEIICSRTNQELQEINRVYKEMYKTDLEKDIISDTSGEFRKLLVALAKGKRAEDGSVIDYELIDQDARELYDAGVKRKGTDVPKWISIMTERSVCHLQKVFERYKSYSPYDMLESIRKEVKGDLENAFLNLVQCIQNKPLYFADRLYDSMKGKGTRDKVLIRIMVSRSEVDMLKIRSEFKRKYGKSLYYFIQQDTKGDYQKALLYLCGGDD
# Results are given in words; binding and its absence hold for the method and conditions named. Binding seen in cells or lysates may run through a third protein. Some results given as binding are weak or reduced against the parent protein; the word gives no strength.
# Target: T1, α1-microglobulin (native human AM protein) (human) (UniProt P02760)
# T1 sequence: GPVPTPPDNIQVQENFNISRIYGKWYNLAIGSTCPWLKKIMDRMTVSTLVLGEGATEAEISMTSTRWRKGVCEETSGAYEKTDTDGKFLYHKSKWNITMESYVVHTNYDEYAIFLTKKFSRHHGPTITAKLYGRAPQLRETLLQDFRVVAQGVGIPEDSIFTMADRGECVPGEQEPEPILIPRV
# Assay: co-IP; immunocoprecipitation to confirm the candidates of the shotgun proteomics in CFBs (Supplementary Fig. S5a); details not shown; only the target purified
substance,measurement,value
annexin A2 (from UniProt Q07936 1-339),binding,binds
